# Results deposited as PubChem BioAssay AID504784 (Drosophila RNAi Screening Center, 2011)
# Screen: 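Fly genes whose silencing alters how much lipid cells keep in droplets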 (primary screen)
# Cell system: Drosophila Kc167 embryonic cells
# Reagents: long dsRNA against Drosophila genes, about 250 ng dsRNA per well
# Time to read-out: 4 days
# Conditions: cells fed 400 µM oleic acid bound to BSA
# Measured: 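Microscope images give a droplet-to-nucleus area ratio, taken as log and converted to a screen-wide B-score; higher values mean greater lipid storage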
# Scale: droplet/nuclear area B-score: higher = more stored lipid (overstorage)
# In all, the deposit lists about 17,000 reagents; shown is a random part of those that have a named target and a result. 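Each column is one replicate's B-score; the combined score over replicates was not deposited, so single values may mislead.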
target,amplicon,"droplet/nuclear area B-score, replicate 1","droplet/nuclear area B-score, replicate 2","droplet/nuclear area B-score, replicate 3"
CG7987,DRSC16357,0.509,2.41,
Cisd2,DRSC14904,-0.648,0.635,
wrapper,DRSC04723,0.0707,0.141,
HERC2,DRSC20566,-1.3,0.255,
fan,DRSC10930,0.611,-0.135,
mRpS23,DRSC01348,0.373,2.07,
a5,DRSC00798,1.31,1.89,
CG12589,DRSC12215,2.52,-0.00902,
CheB93b,DRSC21762,0.491,-0.281,
FucTB,DRSC02745,-0.48,-3.11,
CG13836 (retired record),DRSC14686,-1.34,-1.83,

5 of these entries in another layout.
target	amplicon	droplet/nuclear area B-score, replicate 1	droplet/nuclear area B-score, replicate 2	droplet/nuclear area B-score, replicate 3
fan	DRSC10930	0.611	-0.135	
mRpS23	DRSC01348	0.373	2.07	
a5	DRSC00798	1.31	1.89	
CG12589	DRSC12215	2.52	-0.00902	
CheB93b	DRSC21762	0.491	-0.281	

Additional records:
target,amplicon,"droplet/nuclear area B-score, replicate 1","droplet/nuclear area B-score, replicate 2","droplet/nuclear area B-score, replicate 3"
CG14298,DRSC14777,-2.11,2.5,
CG12054,DRSC14467,0.43,-0.688,
CG12054,DRSC23137,0.00143,-2.6,
Lamtor5,DRSC18491,-0.217,-0.187,
CG8908,DRSC07297,1.3,0.326,
Sytalpha,DRSC02869,-1.6,0.16,
CG3032,DRSC18266,0.631,0.182,
Saf6,DRSC00633,0.858,0.0247,
Cam,DRSC07353,0.268,0.753,1.21
Cam,DRSC07354,0.726,1.55,
Or43a,DRSC07485,-1.29,0.0739,
CG14995,DRSC08452,3.02,-1,
CG14995,DRSC22991,-0.0903,0.0473,
CG17570,DRSC01770,-0.233,-0.709,
CG17570,DRSC03754,0.0295,-0.898,
ABCB7,DRSC08603,0.542,1.94,
Obp49a,DRSC22562,1.01,0.911,
CBP,DRSC17746,-0.00443,0.611,-0.914
CG30158,DRSC04956,1.1,1.14,
CG30158,DRSC04974,1.13,2.21,
CG30158,DRSC04975,-0.902,-3.61,
CG30158,DRSC05012,-0.304,-2.46,
CG3328,DRSC04357,-1.58,-0.961,
